The chains behind the UniProt entries cited, without tags or fusion partners.
UniProt Q0JBA9, entry or part of it: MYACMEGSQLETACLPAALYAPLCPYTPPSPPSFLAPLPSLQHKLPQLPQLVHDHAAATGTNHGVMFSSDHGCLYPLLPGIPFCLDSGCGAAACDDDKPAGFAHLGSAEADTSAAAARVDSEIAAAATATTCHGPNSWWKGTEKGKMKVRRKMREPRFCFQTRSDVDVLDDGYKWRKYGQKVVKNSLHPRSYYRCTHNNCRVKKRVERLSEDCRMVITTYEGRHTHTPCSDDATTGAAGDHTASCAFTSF

Some of the results follow.
Each sequence was assayed against OsWRKY34 (Oryza sativa, UniProt Q0JBA9 1-250) (assay: protein-binding microarray (RPBM); PBS, 2% BSA, 51.3 ng/ul salmon testes DNA, 50 uM zinc acetate, 200 nM TF, 25 C, 1 h; high values mean tight binding). Details: protein: recombinant; tags: N-terminal polyhistidine and DsRed monomer fusion (pET32a); label: CyDye5-dUTP incorporated in the synthesized complementary strand; 3' TTTTT single-stranded linker to array surface; dsDNA, one strand shown.
In short: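 An Axon 4000B scanner gave the binding signal as per-feature fluorescence intensity in arbitrary units. This followed washing of a custom Agilent array that had been incubated for 1 h at 25 °C with 200 nM protein in PBS, 2% BSA, salmon testes DNA and 50 µM zinc acetate. The proteins were transcription factors fused at the N-terminus to polyhistidine and DsRed, expressed in E. coli BL21-CodonPlus and purified on Ni–NTA.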
With “ATAGTGCTCTTATCTCTCATCTTTTATCTTTTCGAAATATCGGAGTCACCTAGTGCAG” the binding signal was 8410 fluorescence intensity (a.u.).
In the case of “GTAGATTTTTTTTTGTGCAAGTTAGCCAAATTTTGACTTGCGGAGTCACCTAGTGCAG”, the binding signal is reported as 8660 fluorescence intensity (a.u.).
With “AACTGCACGTACTATATTCACATGCTAACATAAGCTTTGCCGGAGTCACCTAGTGCAG” the binding signal was 9850 fluorescence intensity (a.u.).
For “CCCCAACCTTTTCAACCACACCCACCCAACACGCCATGATCGGAGTCACCTAGTGCAG”, the binding signal was 9460 fluorescence intensity (a.u.).
“CACAAATACCTCTATGTTGTGCTTATACCATTTTATTTCTCGGAGTCACCTAGTGCAG” was tested, and the binding signal was 8680 fluorescence intensity (a.u.).
In the case of “CATTGATTTGATGCGTCTGGTAGTGTGGTGGTGTTCTTGACGGAGTCACCTAGTGCAG”, the binding signal is reported as 8220 fluorescence intensity (a.u.).
“CGGGGTTCTTGTGTTTATTGTTAAGATCCGGTTTGCTGAACGGAGTCACCTAGTGCAG” was tested, and the binding signal was 21900 fluorescence intensity (a.u.).
In the case of “GCCCGGATCAAACGGCATGAGTTGACCAACTCGTCTGGTACGGAGTCACCTAGTGCAG”, the binding signal is reported as 8800 fluorescence intensity (a.u.).
“TTTTTTACCTACCTCCACTTCTGAATCAATTGTAGTTTTTCGGAGTCACCTAGTGCAG” was tested, and the binding signal was 8480 fluorescence intensity (a.u.).
For “CCCACACTGTATGACCTGCCCAGCTATTGAAACATCAAATCGGAGTCACCTAGTGCAG”, the binding signal was 8190 fluorescence intensity (a.u.).
With “CTCGTTCCCACGGGATCCCGTGGTCTAGCTATCCTCATTACGGAGTCACCTAGTGCAG” the binding signal was 9950 fluorescence intensity (a.u.).
In the case of “CTAAGCTGTGATTTCTTTTCTTTATGTCACCACCTCCAAACGGAGTCACCTAGTGCAG”, the binding signal is reported as 8890 fluorescence intensity (a.u.).
“GCGCTTCTTCTCTGCTTCGTTTCACAGGGTTGTTGATGGCCGGAGTCACCTAGTGCAG” was tested, and the binding signal was 9960 fluorescence intensity (a.u.).
“TCCTCTTCTTTTCTCTCCCTCCGCCACTCGACGCCCAACCCGGAGTCACCTAGTGCAG” was tested, and the binding signal was 9310 fluorescence intensity (a.u.).
For “TCTAGCGTAACATGTTCTTCCATTGATAGTTTGGTGGGATCGGAGTCACCTAGTGCAG”, the binding signal was 8310 fluorescence intensity (a.u.).
With “GAGAGAGAGGGAGGGAGAGGCTGGCTGGGGAGACGGAACACGGAGTCACCTAGTGCAG” the binding signal was 8830 fluorescence intensity (a.u.).
“GGCGGAGGTGGAGGTGCTGGCCGCTGGATGGTCGCAGAGGCGGAGTCACCTAGTGCAG” was tested, and the binding signal was 8880 fluorescence intensity (a.u.).
With “CTTCTGTAGAATCCTCCGCCTCCGCTTCTCTCTCTCGTCGCGGAGTCACCTAGTGCAG” the binding signal was 9700 fluorescence intensity (a.u.).
In the case of “TGTTATTGTGCTGTAATCCTTTCCACTCGTTCCCATTCCTCGGAGTCACCTAGTGCAG”, the binding signal is reported as 9980 fluorescence intensity (a.u.).
In the case of “GGAGATTGGAAGATTAGCTTTGTTTTTAGCATGTTCTGCCCGGAGTCACCTAGTGCAG”, the binding signal is reported as 8890 fluorescence intensity (a.u.).
“TCGGTTGTCTGGTTTTTGTAAGATGAGGGACAGTTCAGTTCGGAGTCACCTAGTGCAG” was tested, and the binding signal was 8160 fluorescence intensity (a.u.).
In the case of “CTCTCTCTGCTTCGATTCGATTCGATTCGATCTTCTCCACCGGAGTCACCTAGTGCAG”, the binding signal is reported as 8190 fluorescence intensity (a.u.).
“TATTGATGGGCTGCTCATTCTAGTTGGGTCCGACCGGCGTCGGAGTCACCTAGTGCAG” was tested, and the binding signal was 9310 fluorescence intensity (a.u.).
For “TTAGTAGCTCAATGTCATTGGAGAATTTGTTTATTTTGAACGGAGTCACCTAGTGCAG”, the binding signal was 8700 fluorescence intensity (a.u.).
“GCCCGTTCTTCAGCTTTCGTTTGTGCGGCCATCGATCGCCCGGAGTCACCTAGTGCAG” was tested, and the binding signal was 11100 fluorescence intensity (a.u.).
With “ACTCCATTCATTTTTTTAATATATGACCTTGCGTTTGATCCGGAGTCACCTAGTGCAG” the binding signal was 9420 fluorescence intensity (a.u.).
In the case of “AATCTGAATTTTGGAGCCCATCAACACTGGCCTCTTTTTCCGGAGTCACCTAGTGCAG”, the binding signal is reported as 8030 fluorescence intensity (a.u.).
In the case of “CTCTCTCAGACTTCTCTTTCTCTCTCTGTCTCCAGCCATGCGGAGTCACCTAGTGCAG”, the binding signal is reported as 9280 fluorescence intensity (a.u.).
“TCCCTTCTACGCCCTTGAATTTTGCTCATTCCCTTACATACGGAGTCACCTAGTGCAG” was tested, and the binding signal was 9450 fluorescence intensity (a.u.).
For “ACGGCTTCGACTACTTCCTCTACATCGTCCACTTCGACTACGGAGTCACCTAGTGCAG”, the binding signal was 9600 fluorescence intensity (a.u.).
“GTCGATACAAAAGTGCCTTTCTTCTTTTTTTTTTCTTCCTCGGAGTCACCTAGTGCAG” was tested, and the binding signal was 8970 fluorescence intensity (a.u.).
“TCCTTTACCAAAGGCTGTCTACTTTTTGGTGGAGGGGAATCGGAGTCACCTAGTGCAG” was tested, and the binding signal was 8850 fluorescence intensity (a.u.).
In the case of “AAGGTTTTTTTTTCTCCGAGTCATCTCGCCTCCTCTCGCGCGGAGTCACCTAGTGCAG”, the binding signal is reported as 11000 fluorescence intensity (a.u.).
In the case of “TCTTGCCAATGCCAACTTCACATGATTTCGCTCACTAGTACGGAGTCACCTAGTGCAG”, the binding signal is reported as 8840 fluorescence intensity (a.u.).
For “CGCTGACCACAGTCCACCGTCCGTCCGTCACCCGCTCCCCCGGAGTCACCTAGTGCAG”, the binding signal was 9870 fluorescence intensity (a.u.).
With “CGCCCCTTCGGGTCACAGTGTTGCCCATCTCGTCGTCTTCCGGAGTCACCTAGTGCAG” the binding signal was 11200 fluorescence intensity (a.u.).
“TCACTATAACACGCACCACTCTCTAGCTACCTCGATCACCCGGAGTCACCTAGTGCAG” was tested, and the binding signal was 9260 fluorescence intensity (a.u.).
In the case of “TTCCATTGCCGGCCCATTTCGCACCTGACGCTTTTTTCACCGGAGTCACCTAGTGCAG”, the binding signal is reported as 10400 fluorescence intensity (a.u.).
With “AGATATTTGGTTTGGTATGTACTCTAACATTGTAAGCGACCGGAGTCACCTAGTGCAG” the binding signal was 8580 fluorescence intensity (a.u.).
With “GGCCCACCGGTCGGTTTCCTCACGCGTCAAACACCGGTTCCGGAGTCACCTAGTGCAG” the binding signal was 10000 fluorescence intensity (a.u.).
In the case of “GCACTTGGTTTTTATAGCTCTGTTTGTTTTCAAGCCTCTACGGAGTCACCTAGTGCAG”, the binding signal is reported as 12300 fluorescence intensity (a.u.).
In the case of “CTTTGGATCTCAACTCGGCCTTAATTAGTAGCGCAGATACCGGAGTCACCTAGTGCAG”, the binding signal is reported as 8160 fluorescence intensity (a.u.).

Reference: paper PMC7819943, “Rice protein-binding microarrays: a tool to detect cis-acting elements near promoter regions in rice”
